This note sets out measurements from PMC4161973.

The chains behind the UniProt entries cited, without tags or fusion partners. Where a name states a change or a piece, a line headed by the entry shows the natural chain unless it says otherwise.
UniProt P39938: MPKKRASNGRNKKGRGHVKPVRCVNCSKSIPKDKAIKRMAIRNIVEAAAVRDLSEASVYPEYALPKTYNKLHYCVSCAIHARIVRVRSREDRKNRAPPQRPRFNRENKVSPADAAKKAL

Assay [1] deals with T1, GST-Kap123 (S. cerevisiae) (UniProt P40069).
T1 sequence: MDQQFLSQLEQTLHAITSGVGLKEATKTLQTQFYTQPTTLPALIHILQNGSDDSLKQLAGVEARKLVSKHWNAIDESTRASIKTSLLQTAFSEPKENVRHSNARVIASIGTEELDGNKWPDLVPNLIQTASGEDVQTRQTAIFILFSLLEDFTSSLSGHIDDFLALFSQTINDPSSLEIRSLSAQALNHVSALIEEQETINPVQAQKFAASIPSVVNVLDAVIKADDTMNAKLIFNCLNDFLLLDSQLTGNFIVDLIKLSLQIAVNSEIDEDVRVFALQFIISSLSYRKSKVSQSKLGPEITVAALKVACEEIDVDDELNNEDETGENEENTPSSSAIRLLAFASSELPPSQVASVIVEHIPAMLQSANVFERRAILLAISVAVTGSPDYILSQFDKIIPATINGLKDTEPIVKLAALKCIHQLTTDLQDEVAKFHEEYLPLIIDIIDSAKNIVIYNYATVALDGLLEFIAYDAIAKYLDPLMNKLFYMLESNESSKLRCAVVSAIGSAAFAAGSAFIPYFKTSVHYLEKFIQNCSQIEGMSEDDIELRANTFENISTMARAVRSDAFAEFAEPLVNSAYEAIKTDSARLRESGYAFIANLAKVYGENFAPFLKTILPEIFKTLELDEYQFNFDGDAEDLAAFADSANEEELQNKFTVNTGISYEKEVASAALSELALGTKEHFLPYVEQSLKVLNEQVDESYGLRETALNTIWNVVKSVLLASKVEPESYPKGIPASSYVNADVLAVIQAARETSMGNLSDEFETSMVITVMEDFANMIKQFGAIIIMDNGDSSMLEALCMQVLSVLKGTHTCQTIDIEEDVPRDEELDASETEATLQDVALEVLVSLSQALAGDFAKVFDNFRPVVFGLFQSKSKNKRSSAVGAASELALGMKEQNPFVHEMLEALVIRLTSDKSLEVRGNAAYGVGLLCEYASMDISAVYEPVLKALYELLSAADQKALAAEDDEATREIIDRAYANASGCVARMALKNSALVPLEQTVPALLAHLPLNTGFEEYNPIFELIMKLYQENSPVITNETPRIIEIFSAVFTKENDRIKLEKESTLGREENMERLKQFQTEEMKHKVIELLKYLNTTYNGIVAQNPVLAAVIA
Briefly: pull-down; dissociation kinetics: pre-immobilised GST-importin:eS26^FLAG complexes with buffer, 1.5 µM or 375 nM RanGTP or Tsr2; samples withdrawn at 1, 2, 4 and 8 min; only the target purified.

Assay [2] has as its target T2, GST-Kap104 (S. cerevisiae) (UniProt P38217).
T2 sequence: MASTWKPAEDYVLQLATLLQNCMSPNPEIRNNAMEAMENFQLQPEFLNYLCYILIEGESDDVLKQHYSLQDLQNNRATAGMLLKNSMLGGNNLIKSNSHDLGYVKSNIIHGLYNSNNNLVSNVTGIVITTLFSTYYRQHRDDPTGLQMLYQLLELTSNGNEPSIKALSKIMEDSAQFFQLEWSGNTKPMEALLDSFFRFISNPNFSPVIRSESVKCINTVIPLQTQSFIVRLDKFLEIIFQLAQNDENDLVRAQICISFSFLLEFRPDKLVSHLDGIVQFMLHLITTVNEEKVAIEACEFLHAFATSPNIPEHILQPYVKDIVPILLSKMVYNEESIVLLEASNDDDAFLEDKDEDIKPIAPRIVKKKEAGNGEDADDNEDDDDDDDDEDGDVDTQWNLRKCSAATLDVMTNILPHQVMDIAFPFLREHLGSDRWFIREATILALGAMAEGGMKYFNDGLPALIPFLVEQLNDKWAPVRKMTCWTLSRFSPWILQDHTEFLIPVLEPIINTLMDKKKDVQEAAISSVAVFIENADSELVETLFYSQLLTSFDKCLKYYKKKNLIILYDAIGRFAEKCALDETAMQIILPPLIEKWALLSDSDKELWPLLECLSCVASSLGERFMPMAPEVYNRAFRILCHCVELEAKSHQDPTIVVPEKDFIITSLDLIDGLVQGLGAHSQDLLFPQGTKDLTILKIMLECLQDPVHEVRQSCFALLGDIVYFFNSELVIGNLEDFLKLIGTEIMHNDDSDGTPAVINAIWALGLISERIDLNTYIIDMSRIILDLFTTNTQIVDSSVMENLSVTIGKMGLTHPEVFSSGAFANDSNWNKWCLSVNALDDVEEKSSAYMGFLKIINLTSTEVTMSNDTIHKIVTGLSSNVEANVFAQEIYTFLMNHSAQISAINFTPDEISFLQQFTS
The description is as above.

These are yes or no findings as the source states them, for the method shown. In cells and extracts the contact can be indirect. A result given as binding can be weak or reduced; the word gives no strength. Sequences can lack the tags named with a protein.

For eS26^FLAG (from UniProt P39938), the binding result in assay [1] and in assay [2] was “binds” each time.
